{"source": "the supplement of paper PMC8728848", "assay_in_all_cases": "glycan array binding signal (z-score within array); higher = stronger binding", "conditions_in_all_cases": "glycan notation: IUPAC condensed, linker removed", "key": {"[1]": {"target": "Fuc(a1-2)Gal", "procedure,_shortened": "(§1)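 Glycan array binding is given as a within-array Z-score, which can be read as non-binding when negative. The arrays, 3228 of them, came from the Consortium for Functional Glycomics database and were retained only where the protein sequence was available. Z-scores were averaged across arrays of the same protein sequence at different concentrations or buffers and across linkers.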"}, "[2]": {"target": "Fuc(a1-2)Gal(b1-3)GalNAc", "procedure,_shortened": "as §1"}, "[3]": {"target": "Fuc(a1-2)Gal(b1-3)GalNAc(a1-3)[Fuc(a1-2)]Gal(b1-4)Glc", "procedure,_shortened": "as §1"}, "[4]": {"target": "Fuc(a1-2)Gal(b1-3)GalNAc(a1-3)[Fuc(a1-2)]Gal(b1-4)GlcNAc", "procedure,_shortened": "as §1"}, "[5]": {"target": "Fuc(a1-2)Gal(b1-3)GalNAc(b1-3)Gal", "procedure,_shortened": "as §1"}, "[6]": {"target": "Fuc(a1-2)Gal(b1-3)GalNAc(b1-3)Gal(a1-4)Gal(b1-4)Glc", "procedure,_shortened": "as §1"}, "[7]": {"target": "Fuc(a1-2)Gal(b1-3)GalNAc(b1-4)[Neu5Ac(a2-3)]Gal(b1-4)Glc", "procedure,_shortened": "as §1"}, "[8]": {"target": "Fuc(a1-2)Gal(b1-3)GlcNAc", "procedure,_shortened": "as §1"}, "[9]": {"target": "Fuc(a1-2)Gal(b1-3)GlcNAc(b1-2)Man(a1-3)[Fuc(a1-2)Gal(b1-3)GlcNAc(b1-2)Man(a1-6)]Man(b1-4)GlcNAc(b1-4)GlcNAc", "procedure,_shortened": "as §1"}, "[10]": {"target": "Fuc(a1-2)Gal(b1-3)GlcNAc(b1-2)Man(a1-3)[Fuc(a1-2)Gal(b1-3)GlcNAc(b1-2)Man(a1-6)]Man(b1-4)GlcNAc(b1-4)[Fuc(a1-6)]GlcNAc", "procedure,_shortened": "as §1"}, "[11]": {"target": "Fuc(a1-2)Gal(b1-3)GlcNAc(b1-3)Gal(b1-4)Glc", "procedure,_shortened": "as §1"}, "[12]": {"target": "Fuc(a1-2)Gal(b1-3)GlcNAc(b1-3)GalNAc", "procedure,_shortened": "as §1"}, "[13]": {"target": "Fuc(a1-2)Gal(b1-3)GlcNAc(b1-3)[Fuc(a1-2)Gal(b1-3)GlcNAc(b1-6)]GalNAc", "procedure,_shortened": "as §1"}, "[14]": {"target": "Fuc(a1-2)Gal(b1-3)GlcNAc(b1-3)[Gal(b1-4)GlcNAc(b1-6)]Gal(b1-4)Glc", "procedure,_shortened": "as §1"}, "[15]": {"target": "Fuc(a1-2)Gal(b1-3)GlcNAc(b1-3)[Neu5Ac(a2-6)Gal(b1-4)GlcNAc(b1-6)]Gal(b1-4)Glc", "procedure,_shortened": "as §1"}, "[16]": {"target": "Fuc(a1-2)Gal(b1-3)GlcNAc6S", "procedure,_shortened": "as §1"}, "[17]": {"target": "Fuc(a1-2)Gal(b1-3)[Fuc(a1-4)]GlcNAc", "procedure,_shortened": "as §1"}, "[18]": {"target": "Fuc(a1-2)Gal(b1-3)[Fuc(a1-4)]GlcNAc(b1-2)Man(a1-3)[Fuc(a1-2)Gal(b1-3)[Fuc(a1-4)]GlcNAc(b1-2)Man(a1-3)]Man(b1-4)GlcNAc(b1-4)GlcNAc", "procedure,_shortened": "as §1"}, "[19]": {"target": "Fuc(a1-2)Gal(b1-3)[Fuc(a1-4)]GlcNAc(b1-2)Man(a1-3)[Fuc(a1-2)Gal(b1-3)[Fuc(a1-4)]GlcNAc(b1-2)Man(a1-6)]Man(b1-4)GlcNAc(b1-4)[Fuc(a1-6)]GlcNAc(b1-4)[Fuc(a1-6)]GlcNAc", "procedure,_shortened": "as §1"}, "[20]": {"target": "Fuc(a1-2)Gal(b1-3)[Fuc(a1-4)]GlcNAc(b1-3)[Fuc(a1-3)[Gal(b1-4)]GlcNAc(b1-6)]Gal(b1-4)Glc", "procedure,_shortened": "as §1"}, "[21]": {"target": "Fuc(a1-2)Gal(b1-3)[Fuc(a1-4)]GlcNAc(b1-3)[Gal(b1-4)GlcNAc(b1-6)]Gal(b1-4)Glc", "procedure,_shortened": "as §1"}, "[22]": {"target": "Fuc(a1-2)Gal(b1-4)Glc", "procedure,_shortened": "as §1"}, "[23]": {"target": "Fuc(a1-2)Gal(b1-4)Glc6S", "procedure,_shortened": "as §1"}, "[24]": {"target": "Fuc(a1-2)Gal(b1-4)GlcNAc", "procedure,_shortened": "as §1"}, "[25]": {"target": "Fuc(a1-2)Gal(b1-4)GlcNAc(b1-2)Man", "procedure,_shortened": "as §1"}, "[26]": {"target": "Fuc(a1-2)Gal(b1-4)GlcNAc(b1-2)Man(a1-3)[Fuc(a1-2)Gal(b1-4)GlcNAc(b1-2)Man(a1-6)]Man(b1-4)GlcNAc(b1-4)GlcNAc", "procedure,_shortened": "as §1"}, "[27]": {"target": "Fuc(a1-2)Gal(b1-4)GlcNAc(b1-2)Man(a1-3)[Fuc(a1-2)Gal(b1-4)GlcNAc(b1-2)Man(a1-6)]Man(b1-4)GlcNAc(b1-4)[Fuc(a1-6)]GlcNAc", "procedure,_shortened": "as §1"}, "[28]": {"target": "Fuc(a1-2)Gal(b1-4)GlcNAc(b1-2)[Fuc(a1-2)Gal(b1-4)GlcNAc(b1-4)]Man(a1-3)[Fuc(a1-2)Gal(b1-4)GlcNAc(b1-2)Man(a1-6)]Man(b1-4)GlcNAc(b1-4)GlcNAc", "procedure,_shortened": "as §1"}, "[29]": {"target": "Fuc(a1-2)Gal(b1-4)GlcNAc(b1-3)Gal(b1-4)GlcNAc", "procedure,_shortened": "as §1"}, "[30]": {"target": "Fuc(a1-2)Gal(b1-4)GlcNAc(b1-3)Gal(b1-4)GlcNAc(b1-2)Man(a1-3)[Fuc(a1-2)Gal(b1-4)GlcNAc(b1-3)Gal(b1-4)GlcNAc(b1-2)Man(a1-6)]Man(b1-4)GlcNAc(b1-4)GlcNAc", "procedure,_shortened": "as §1"}}, "note": "The list shows a part of the results."}
{"binder": "PX14404-bvu-534-26-534 (Bacteroides vulgatus) (protein) EDPRGKLTPENFFSTQDELNMSIYALYQKVNLSQVYTNMQLPQWQGDDITTNPGSNKQPAAEMDKFAAANNNKGVKDAWNMHYAIVKAANLIIQGASKTPTTQDEINIALGQAKFWRAYAYFTLVRLWGPLPMNLDNVNDDYTKPLSPVEEVYGHIVQDLTEAEAVLPTGYSGSPRFLNGVNVYVTRQAAKSTLAAVYMAMAGWPMNKTEYYAKAAEKAKEVIEGVNRGEYEYKLDKDYKDVYAMSNNYNNETVLGINYSPFVDWAQDSELTSCNQFESLGGWGDAWGEIRFWKEFPDGPRKDATYDPKIRLKDGTLVDWWELKEDGTPVVPEHHPMFSIFSVNWDPASKVNTSAPYDYTKPASQNMCNDHRHRIIRYSEVLLWYAEAKARTGQTDELAFKCLNDVRERAGLEPLTGLSADDLAEAAYKEHGWEVAGYWVALVTRRADQFRMNRLKDTFKERAENTAVEVADGILVKESVEYTNRTWSDNLMYLPYPDMDSQKNPNLVR", "values": [{"measurement": "glycan array binding signal (z-score)", "setting": "[1]", "value": -0.396}, {"measurement": "glycan array binding signal (z-score)", "setting": "[2]", "value": -0.493}, {"measurement": "glycan array binding signal (z-score)", "setting": "[3]", "value": -0.188}, {"measurement": "glycan array binding signal (z-score)", "setting": "[4]", "value": -0.799}, {"measurement": "glycan array binding signal (z-score)", "setting": "[5]", "value": -0.791}, {"measurement": "glycan array binding signal (z-score)", "setting": "[6]", "value": 0.314}, {"measurement": "glycan array binding signal (z-score)", "setting": "[7]", "value": -0.348}, {"measurement": "glycan array binding signal (z-score)", "setting": "[8]", "value": 0.012}, {"measurement": "glycan array binding signal (z-score)", "setting": "[9]", "value": 0.892}, {"measurement": "glycan array binding signal (z-score)", "setting": "[10]", "value": -0.125}, {"measurement": "glycan array binding signal (z-score)", "setting": "[11]", "value": -0.445}, {"measurement": "glycan array binding signal (z-score)", "setting": "[12]", "value": -0.239}, {"measurement": "glycan array binding signal (z-score)", "setting": "[13]", "value": 2.03}, {"measurement": "glycan array binding signal (z-score)", "setting": "[14]", "value": -1.04}, {"measurement": "glycan array binding signal (z-score)", "setting": "[15]", "value": -0.879}, {"measurement": "glycan array binding signal (z-score)", "setting": "[16]", "value": 0.528}, {"measurement": "glycan array binding signal (z-score)", "setting": "[17]", "value": -0.219}, {"measurement": "glycan array binding signal (z-score)", "setting": "[18]", "value": 0.767}, {"measurement": "glycan array binding signal (z-score)", "setting": "[19]", "value": 0.278}, {"measurement": "glycan array binding signal (z-score)", "setting": "[20]", "value": -0.376}, {"measurement": "glycan array binding signal (z-score)", "setting": "[21]", "value": -0.817}, {"measurement": "glycan array binding signal (z-score)", "setting": "[22]", "value": -0.79}, {"measurement": "glycan array binding signal (z-score)", "setting": "[23]", "value": 2.24}, {"measurement": "glycan array binding signal (z-score)", "setting": "[24]", "value": -0.039}, {"measurement": "glycan array binding signal (z-score)", "setting": "[25]", "value": 0.442}, {"measurement": "glycan array binding signal (z-score)", "setting": "[26]", "value": 1.21}, {"measurement": "glycan array binding signal (z-score)", "setting": "[27]", "value": 0.239}, {"measurement": "glycan array binding signal (z-score)", "setting": "[28]", "value": 0.13}, {"measurement": "glycan array binding signal (z-score)", "setting": "[29]", "value": -1.09}, {"measurement": "glycan array binding signal (z-score)", "setting": "[30]", "value": -0.43}]}
